This is an account of results in US20190167761A1, “PHARMACEUTICAL COMPOSITION FOR PREVENTING OR TREATING STRESS-RELATED DISEASE, INCLUDING DISC1 PROTEIN OR GENE ENCODING THE SAME” (POSTECH ACADEMY-INDUSTRY FOUNDATION, priority 2017, published 2019).

The chains behind the UniProt entries cited, without tags or fusion partners.
UniProt P11881: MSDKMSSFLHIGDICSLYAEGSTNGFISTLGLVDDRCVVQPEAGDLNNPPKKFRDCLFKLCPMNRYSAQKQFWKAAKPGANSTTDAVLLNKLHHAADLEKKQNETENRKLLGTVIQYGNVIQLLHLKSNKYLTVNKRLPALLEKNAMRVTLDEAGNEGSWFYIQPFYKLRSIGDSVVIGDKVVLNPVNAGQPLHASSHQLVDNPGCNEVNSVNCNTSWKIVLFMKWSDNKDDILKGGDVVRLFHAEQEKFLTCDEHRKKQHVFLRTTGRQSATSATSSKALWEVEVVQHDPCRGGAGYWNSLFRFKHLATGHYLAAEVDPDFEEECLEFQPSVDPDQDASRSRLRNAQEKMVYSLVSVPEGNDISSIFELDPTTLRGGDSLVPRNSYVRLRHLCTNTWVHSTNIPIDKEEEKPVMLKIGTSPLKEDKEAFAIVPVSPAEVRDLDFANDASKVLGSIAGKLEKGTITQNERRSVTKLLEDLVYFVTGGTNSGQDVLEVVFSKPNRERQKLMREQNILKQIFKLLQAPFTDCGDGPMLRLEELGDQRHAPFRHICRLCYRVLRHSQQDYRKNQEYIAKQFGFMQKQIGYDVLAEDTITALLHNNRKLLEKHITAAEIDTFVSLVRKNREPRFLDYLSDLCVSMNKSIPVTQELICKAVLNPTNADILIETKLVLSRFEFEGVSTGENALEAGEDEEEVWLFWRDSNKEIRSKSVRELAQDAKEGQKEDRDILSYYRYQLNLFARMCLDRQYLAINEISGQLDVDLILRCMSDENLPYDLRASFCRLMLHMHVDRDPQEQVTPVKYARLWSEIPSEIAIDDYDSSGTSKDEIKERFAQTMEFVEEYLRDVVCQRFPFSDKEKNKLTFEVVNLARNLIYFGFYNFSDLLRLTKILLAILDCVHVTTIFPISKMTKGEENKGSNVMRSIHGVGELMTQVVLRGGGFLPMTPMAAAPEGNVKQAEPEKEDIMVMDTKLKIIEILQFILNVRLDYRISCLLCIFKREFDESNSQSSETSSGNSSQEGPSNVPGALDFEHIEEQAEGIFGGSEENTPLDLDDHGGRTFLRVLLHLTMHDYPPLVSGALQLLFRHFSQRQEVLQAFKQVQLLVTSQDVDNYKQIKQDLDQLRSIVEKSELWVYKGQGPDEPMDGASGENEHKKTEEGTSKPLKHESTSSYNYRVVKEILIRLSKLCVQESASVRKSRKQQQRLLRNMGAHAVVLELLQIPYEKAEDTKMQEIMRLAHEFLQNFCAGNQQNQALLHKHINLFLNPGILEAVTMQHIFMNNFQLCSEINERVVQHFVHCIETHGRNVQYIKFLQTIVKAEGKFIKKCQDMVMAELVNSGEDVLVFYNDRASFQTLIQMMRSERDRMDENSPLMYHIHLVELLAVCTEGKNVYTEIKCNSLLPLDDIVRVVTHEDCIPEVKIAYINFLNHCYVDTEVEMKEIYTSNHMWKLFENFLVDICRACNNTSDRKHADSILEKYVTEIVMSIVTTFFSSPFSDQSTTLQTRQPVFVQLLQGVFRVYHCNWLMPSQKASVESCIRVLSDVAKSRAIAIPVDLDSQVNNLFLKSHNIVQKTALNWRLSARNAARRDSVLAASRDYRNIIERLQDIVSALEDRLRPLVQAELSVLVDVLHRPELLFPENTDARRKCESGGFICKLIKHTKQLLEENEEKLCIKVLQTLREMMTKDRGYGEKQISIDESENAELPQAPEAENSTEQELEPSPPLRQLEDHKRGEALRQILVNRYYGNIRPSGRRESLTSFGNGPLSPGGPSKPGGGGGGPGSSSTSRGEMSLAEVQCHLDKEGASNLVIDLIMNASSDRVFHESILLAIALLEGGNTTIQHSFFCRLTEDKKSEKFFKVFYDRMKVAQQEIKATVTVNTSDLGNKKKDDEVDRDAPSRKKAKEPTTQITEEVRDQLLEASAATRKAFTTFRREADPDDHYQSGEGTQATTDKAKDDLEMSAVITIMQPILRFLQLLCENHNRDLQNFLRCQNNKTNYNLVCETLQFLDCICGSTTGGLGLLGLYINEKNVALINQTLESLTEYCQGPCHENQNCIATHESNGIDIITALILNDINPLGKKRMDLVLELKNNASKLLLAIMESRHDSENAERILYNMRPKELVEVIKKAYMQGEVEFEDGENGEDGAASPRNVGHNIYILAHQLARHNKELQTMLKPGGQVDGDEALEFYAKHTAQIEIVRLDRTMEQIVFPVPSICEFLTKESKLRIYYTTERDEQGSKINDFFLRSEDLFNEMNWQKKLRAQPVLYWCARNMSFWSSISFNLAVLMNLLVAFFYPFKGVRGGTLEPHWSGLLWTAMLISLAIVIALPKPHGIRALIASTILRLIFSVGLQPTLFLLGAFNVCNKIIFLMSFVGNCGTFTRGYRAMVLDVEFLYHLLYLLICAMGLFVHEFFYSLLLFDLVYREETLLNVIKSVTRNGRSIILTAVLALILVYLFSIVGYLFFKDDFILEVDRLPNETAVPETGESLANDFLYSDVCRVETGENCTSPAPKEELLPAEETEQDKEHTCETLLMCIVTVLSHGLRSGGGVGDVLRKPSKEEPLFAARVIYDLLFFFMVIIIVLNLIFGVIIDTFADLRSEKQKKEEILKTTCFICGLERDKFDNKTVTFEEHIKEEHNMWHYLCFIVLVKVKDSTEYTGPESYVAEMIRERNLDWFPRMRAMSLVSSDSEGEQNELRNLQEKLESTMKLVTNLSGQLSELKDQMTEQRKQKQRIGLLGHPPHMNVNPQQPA

This experiment concerns the target endogenous IP3R1 protein (adult mouse brain) (mouse) (UniProt P11881). The experiment is described as follows: immunoblotting of whole lysates and crude MAM fraction of adult mouse brain (FIG. 2C legend). In general terms: Immunoblotting shows a protein as a band on a membrane.

These are yes or no findings as the source states them, for the method shown. Some entries that bind do so weakly or less than the wild type.

B1: endogenous DISC1 protein (adult mouse brain) (protein, UniProt Q811T9 1-852, looked up)
chain: MQGGGPRGAPIHSPSHGADSGHGLPPAVAPQRRRLTRRPGYMRSTAGSGIGFLSPAVGMPHPSSAGLTGQQSQHSQSKAGQCGLDPGSHCQASLVGKPFLKSSLVPAVASEGHLHPAQRSMRKRPVHFAVHSKNDSRQSERLTGSFKPGDSGFWQELLSSDSFKSLAPSLDAPWNKGSRGLKTVKPLASPALNGPADIASLPGFQDTFTSSFSFIQLSLGAAGERGEAEGCLPSREAEPLHQRPQEMAAEASSSDRPHGDPRHLWTFSLHAAPGLADLAQVTRSSSRQSECGTVSSSSSDTGFSSQDASSAGGRGDQGGGWADAHGWHTLLREWEPMLQDYLLSNRRQLEVTSLILKLQKCQEKVVEDGDYDTAETLRQRLEELEQEKGRLSWALPSQQPALRSFLGYLAAQIQVALHGATQRAGSDDPEAPLEGQLRTTAQDSLPASITRRDWLIREKQRLQKEIEALQARMSALEAKEKRLSQELEEQEVLLRWPGCDLMALVAQMSPGQLQEVSKALGETLTSANQAPFQVEPPETLRSLRERTKSLNLAVRELTAQVCSGEKLCSSLRRRLSDLDTRLPALLEAKMLALSGSCFSTAKELTEEIWALSSEREGLEMFLGRLLALSSRNSRRLGIVKEDHLRCRQDLALQDAAHKTRMKANTVKCMEVLEGQLSSCRCPLLGRVWKADLETCQLLMQSLQLQEAGSSPHAEDEEQVHSTGEAAQTAALAVPRTPHPEEEKSPLQVLQEWDTHSALSPHCAAGPWKEDSHIVSAEVGEKCEAIGVKLLHLEDQLLGAMYSHDEALFQSLQGELQTVKETLQAMILQLQPTKEAGEASASYPTAGAQETEA
Consider B1, for which the binding result is recorded as “binds”.
